The list shows a part of the results.

This test has as its system T1, CTL2-GFP (C. trachomatis L2/434/Bu, GFP-expressing).
T1 construct: L2/434/Bu, GFP-expressing
Set-up: species or system HeLa; Intracellular C. trachomatis growth in HeLa cells, bulk GFP fluorescence relative to DMSO. Particulars: bulk GFP, single well; 28.5 h, 10 µM; inhibitor.
Regarding `Nc1ncnc(Nc2cccc(F)c2)n1` [CBK017447], the “% of control remaining” value was determined as 101.518%. With `OC(CNc1nccnc1-c1cccc(C(F)(F)F)c1)COc1ccccc1` (stereo not shown) [CBK037010] the figure was 172.17%. With `COc1cc2c(cc1OC)CN(Cc1csc(C)n1)CC2` [CBK126443] the figure was 121.412%; with `O=C1NCCN/C1=C\C(=O)c1ccc(Br)cc1` [CBK261427], 100.63%.

For the compound `O=C(CSc1ccc(-n2ccnc2)nn1)Nc1cccnc1` [CBK287635], the “% of control remaining” value was 123.071%. For the compound `O=C(Nc1sc2c(c1C(=O)N1CCOCC1)CCCCC2)c1cccs1` [CBK307099], the “% of control remaining” value is 98.9685%. With `COCCNC(=O)Cn1nnc(-c2ccc(OC)cc2)n1` [CBK069349] the figure was 100%; with `CCCCNC(=S)NC1CC[C@@]2(c3ccc(Br)cc3)CCN(C)[C@H]2C1` (stereo partly shown) [CBK003781], 105.847%. With `C/C(=C(/C(=O)N(N)c1nc2ccccc2s1)C(=O)C(F)(F)F)N1CCC(C(N)=O)(N2CCCCC2)CC1` [CBK265787] the figure was 56.7625%; with `Cc1ccc(NC(=O)Cc2ccncc2)c(C)n1` [CBK200385], 103.763%; with `C=C(C)CNC(=O)c1cc(-c2cccc(NC(C)=O)c2)cnc1N(C)S(C)(=O)=O` [CBK076622], 168.164%. With `Cc1nnnn1CCC(=O)NCCc1cn2ccccc2n1` [CBK306816] the figure was 114.972%.

For `Cc1ncccc1C(=O)N1CCN(Cc2ccccc2)CC1` [CBK200171], the “% of control remaining” value is listed as 173.661%. For the compound `O=C(CSc1nnc(-c2ccco2)o1)N1CCN(CC(=O)N2CCCC2)CC1` [CBK295136], the “% of control remaining” value is reported as 130.076%. With `COc1ccc2c(CN(C)Cc3cc(C)[nH]n3)cn(C)c2c1` [CBK281734] the figure was 132.728%; with `CCOc1ccccc1NC(=O)CNS(=O)(=O)c1ccccc1` [CBK265860], 179.778%. `O=C(O)CCC(C(=O)O)N1C(=O)c2c(Cl)c(Cl)c(Cl)c(Cl)c2C1=O` (stereo not shown) [CBK264308]: the “% of control remaining” value was determined as 137.6%. On to `Cc1ccc(C(=O)Nc2cccc(-c3cn4cccnc4n3)c2)cc1` [CBK287503], for which the “% of control remaining” value is listed as 144.467%. With `CC(O)(CC(=O)O)C12CC3CC(CC(C3)C1)C2` (stereo not shown) [CBK261245] the figure was 91.9047%. With `CN1CCC(N2CCN(C(=O)c3cncc(-c4[nH]nnc4-c4ccccc4)c3)CC2)CC1` [CBK160327] the figure was 114.594%.

Take `CN(C)C(=O)c1ccc(Cn2nc(C(=O)NCCOc3ccccc3)c3ccccc32)cc1` [CBK047700]: the “% of control remaining” value amounted to 100%. With `COc1ccc(CCNC(=O)c2cccc(-c3ccc(OC4CCNCC4)cc3)n2)cc1OC` [CBK126548T] the figure was 120.955%. With `O=C(c1ccccc1)c1ccc(NC(=O)c2ccccc2F)c(NC(=O)c2ccccc2F)c1` [CBK265183] the figure was 124.757%. With `CC(C)[C@H]1CN(Cc2ccccc2F)CCN1C(=O)Cn1ncc2ccccc2c1=O` [CBK286172] the figure was 127.484%. `CC(C)CN(Cc1ccc2c(c1)OCO2)C(=O)NCc1ccc(Cl)c(Cl)c1` [CBK159069]: the “% of control remaining” value was 101.449%. With `CC(C)(C)S(=O)(=O)Nc1nccnc1-c1ccc(OCc2ccccc2)cc1` [CBK050886] the figure was 130.421%; with `CC(C)Sc1nnc(N2C(N)=C(C#N)C(c3cccs3)C3=C2CCCC3=O)s1` (stereo not shown) [CBK293989], 114.663%; with `CC(=O)Nc1cccc(CN2CCCC2CN2CCCC2CO)c1` (stereo not shown) [CBK305163], 72.3582%. With `Cc1ccccc1-c1csc2c(=O)[nH]c(N3CCC4(CC3)OCCO4)nc12` [CBK291141] the figure was 127.948%; with `COc1cccc(CNn2cnnc2S)c1OCc1ccccc1` [CBK265781], 174.793%. Regarding `O=C(Cc1ccc(Cl)cc1)NC(=S)Nc1ccccc1O` [CBK263905], the “% of control remaining” value is recorded as 137.842%. With `Cc1nc2ccc(C(=O)N3CCC(O)(c4ccccc4C)CC3)cc2[nH]1` [CBK283300] the figure was 132.242%.

Take `CN(C)C(=O)CN1CCCC2(CCN(C(=O)c3cc(F)c(F)cc3F)C2)C1` (stereo not shown) [CBK132024]: the “% of control remaining” value is 100%. With `Cc1cc(C(=O)Nc2cc(F)c(N3CCCC3)c(F)c2)c(C)n1C1CC1` [CBK306226] the figure was 101.207%. With `Cc1ccc(/C=N/NC(=O)C(C)Oc2ccccc2Br)o1` (stereo not shown) [CBK262226] the figure was 80.1244%.

For the compound `CSCCN1CCC(Oc2nccnc2OCCN2C(=O)CCC2=O)CC1` [CBK084351], the “% of control remaining” value is on record as 98.4442%. With `CC(=O)N1CCc2cc(C(=O)N[C@@H](Cc3ccccc3)C(=O)O)ccc21` [CBK298303] the figure was 154.002%.

Take `O=c1nc(O)c(I)cn1C1OC(CO)C(O)C1O` (stereo not shown) [CBK015625]: the “% of control remaining” value is given as 152.795%. In the case of `CNC(=O)CN(CCO)Cc1cc(Br)ccc1F` [CBK304941], the “% of control remaining” value is given as 110.868%. With `Cn1nnnc1SCCNC(=O)Nc1cccc(N2CCOC2=O)c1` [CBK306593] the figure was 141.932%.

With `O=C(OCC=C=CSc1ccc([N+](=O)[O-])cc1)c1ccc(F)cc1` [CBK265650], the “% of control remaining” value is listed as 118.155%.

For `c1ccc(CN2CCN(Cc3ccccc3)C2c2cccnc2)cc1` [CBK260885], the “% of control remaining” value is recorded as 126.52%. Turning to `COC(=O)CNC(c1ccccc1)c1cc(Br)ccc1N` (stereo not shown) [CBK019222], the “% of control remaining” value was 107.891%. As to `CC(C)NS(=O)(=O)c1ccc(NC(=O)Cc2cccc3ccccc23)cc1` [CBK268102], the “% of control remaining” value came out at 136.078%. With `O=C(Cn1c(=O)n(Cc2cccnc2)c(=O)c2ncccc21)NC1CCCC1` [CBK287666] the figure was 123.661%; with `Cn1c(=O)c2cnc(-c3ccccc3Cl)nc2n(C)c1=O` [CBK291219], 108.939%; with `CC(C)(CO)CCCn1cncc1-c1cnn(-c2ccc(F)cc2)c1` [CBK281466], 80.7398%. With `Cc1ncc([N+](=O)[O-])n1CCOC(=O)NC(N1CCOCC1)C(Cl)(Cl)Cl` (stereo not shown) [CBK261299], the “% of control remaining” value was found to be 88.7275%. With `CN(C(=O)C1CCC1)c1nc2c(s1)CCc1c-2cnn1C` [CBK281931] the figure was 129.147%. With `Cc1csc(Sc2nccnc2N2CCCC2)n1` [CBK093735] the figure was 112.608%; with `O=S(=O)(Nc1cc(C(F)(F)F)ccc1N1CCOCC1)c1ccc(-c2ccccn2)s1` [CBK062557], 105.171%. With `COc1ccc(C)cc1S(=O)(=O)N(CCO)c1cc(N2CCNCC2)c2occc2c1` [CBK067894C] the figure was 91.7205%; with `Cc1ccc(S(=O)(=O)N(CC(=O)O)c2ccc(C)c(C)c2)cc1` [CBK263778], 130.356%. In the case of `COc1ccc(CCN[C@H]2CCC[C@@H]2O)cc1OC` [CBK005354G], the “% of control remaining” value is 134.619%. With `COc1ccc([C@@H]2CCN(C(=O)Cc3ccccc3F)C[C@H]2O)cc1` [CBK283756] the figure was 126.979%. With `CC(C)CCNCc1ccc(-c2cn(CC(=O)NCCc3ccccc3)nn2)cc1` [CBK164740] the figure was 132.09%; with `O=C(Nc1nnc(COc2ccccc2)s1)c1cccc2ccccc12` [CBK300487], 137.159%. With `CC1(C)Cc2c(sc(NC(=O)Cc3ccccc3)c2C(=O)O)CO1` [CBK264354] the figure was 124.106%; with `COCCN1C(=O)C2(CC(=O)N(C)C2=O)c2ccccc21` (stereo not shown) [CBK075387], 182.921%; with `CC(C)(C)OC(=O)NCc1ccc(CNCc2ccc(-c3ccccc3)cc2)cc1` [CBK056706], 86.5533%. Turning to `Cc1nc(N2CCOCC2)nc(Nc2ccc(Cl)cc2)c1[N+](=O)[O-]` [CBK264685], the “% of control remaining” value stood at 111.792%. With `NCc1ccc(CN(Cc2ccc(-c3ccccc3)cc2)C(=O)Nc2ccccc2C(F)(F)F)cc1` [CBK046116C] the figure was 108.093%; with `O=C1NC/C=C/CC2(CCN(Cc3ccccc3)CC2)C(=O)NCCOc2ccccc21` [CBK292097], 144.664%; with `c1ccc2[nH]c(SCCCCCSc3nc4ccccc4[nH]3)nc2c1` [CBK025418], 103.118%. Consider `c1ccc(-c2nc(C3CCCC3)n3ccccc23)cc1` [CBK149260], for which the “% of control remaining” value worked out at 122.677%.

`CCOC(=O)N1CCN(C(C(=O)O)c2c[nH]c3cc(OCc4ccccc4)ccc23)CC1` (stereo not shown) [CBK286689]: the “% of control remaining” value is 123.998%. For the compound `COc1cccc2cc(C(=O)Nc3ccc4[nH]ccc4c3)oc12` [CBK149819], the “% of control remaining” value is 115.329%. `CCCN1CCN(c2ncnc3sc(C4COc5ccccc5O4)cc23)CC1` (stereo not shown) [CBK269396]: the “% of control remaining” value amounted to 98.6124%. With `CCCC/C=C/c1cnc(N)c(N[C@@H](C)c2ccccc2)n1` [CBK063722] the figure was 121.036%. With `Cn1cnc(S(=O)(=O)N(c2ccc(C(C)(C)C)cc2)C2CCNCC2)c1` [CBK165046T] the figure was 119.194%; with `O=C(NC(CN1CCOCC1)c1ccccc1)c1cnc(-c2ccc(Cl)cc2)c(-c2ccncc2)c1` (stereo not shown) [CBK037604], 189.951%. With `CN(C)C(=O)[C@H]1CN2CCC1C[C@@H]2Cn1cc(CCO)nn1` (stereo partly shown) [CBK289089] the figure was 124.506%; with `O=C(O)c1ccccc1Nc1c2ccccc2nc2ccccc12` [CBK263921], 85.6663%. As for `Cn1cccc1C(=O)NCc1ccc(OC2CCNCC2)cc1` [CBK036360T], the “% of control remaining” value is 104.581%.

For the compound `CN1CCN(c2ccc(NS(=O)(=O)c3ccc(Cl)cc3)cc2)CC1` [CBK076932], the “% of control remaining” value was determined as 111.904%. On to `Cc1ccc(CN(CCCn2ccnc2)Cc2ccccc2O)s1` [CBK283135], for which the “% of control remaining” value stood at 98.648%. With `Cc1cnn(C2CCCN(C(=O)CC3OCCc4sccc43)C2)c1` (stereo not shown) [CBK305329] the figure was 120.035%; with `Cc1cc(NC(=O)C2CCCCC2)nc2c1c(=O)oc1ccccc12` [CBK291247], 132.381%; with `c1csc(-c2cn3ccnc3c(NC3CC3)n2)c1` [CBK066712], 157.136%.

The values above are taken from publication PMC12040169 (PLOS Biology, 2025).
